# Results: article PMC8080764
# Molecular target: T1, SRF K165A (HA-SRF K165A) (UniProt P11831)
# T1 sequence (looked up, limits assumed): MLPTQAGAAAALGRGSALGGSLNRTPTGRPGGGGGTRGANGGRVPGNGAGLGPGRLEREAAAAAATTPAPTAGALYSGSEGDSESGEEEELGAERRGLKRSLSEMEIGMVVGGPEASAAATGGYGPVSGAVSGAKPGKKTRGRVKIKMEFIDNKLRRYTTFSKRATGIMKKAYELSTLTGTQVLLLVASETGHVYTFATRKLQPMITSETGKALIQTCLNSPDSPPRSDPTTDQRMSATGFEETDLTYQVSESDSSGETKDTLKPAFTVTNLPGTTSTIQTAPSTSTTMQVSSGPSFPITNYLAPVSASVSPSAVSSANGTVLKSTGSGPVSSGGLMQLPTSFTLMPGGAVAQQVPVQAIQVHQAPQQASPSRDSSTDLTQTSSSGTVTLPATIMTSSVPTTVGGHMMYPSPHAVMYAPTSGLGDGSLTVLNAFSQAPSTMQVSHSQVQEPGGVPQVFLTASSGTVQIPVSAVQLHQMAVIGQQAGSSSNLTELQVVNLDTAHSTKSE
# Assay: EMSA
# Details: LightShift chemiluminescent EMSA kit binding buffer (composition, salt and pH not given), 30 min at room temperature; 5% PAGE, 0.5x TBE, 100 V, 1 h; protein in an extract; protein details: HA; label: 3' biotin
row,Sequence,binding result
1,GACACCCAAATATGGCTTGG (double strand) [Acta1 SRE near (proximal SRE)],binds more weakly
2,AGAACCCATAAATGGGGTGC (double strand) [Acta1 SRE far (distal SRE)],no binding

# Construct, isoform or probe ends are uncertain for at least one entry. Results from cells or extracts need not show a direct contact. A negative result means that nothing was seen under these conditions. Where a protein sequence is shown, tags need not be part of it. A weaker result is weaker than the reference pair of the same experiment.
